PMC7641127, “MCL1 binds and negatively regulates the transcriptional function of tumor suppressor p73” (Cell Death & Disease, 2020)
These are yes or no findings as the source states them, for the method shown. Binding seen in cells or lysates may run through a third protein. Some entries that bind do so weakly or less than the wild type. Where a sequence is shown, tags or fusion partners need not be part of it.

Sequences of proteins named here, by UniProt entry; tags and fusion partners are left off.
UniProt Q07820: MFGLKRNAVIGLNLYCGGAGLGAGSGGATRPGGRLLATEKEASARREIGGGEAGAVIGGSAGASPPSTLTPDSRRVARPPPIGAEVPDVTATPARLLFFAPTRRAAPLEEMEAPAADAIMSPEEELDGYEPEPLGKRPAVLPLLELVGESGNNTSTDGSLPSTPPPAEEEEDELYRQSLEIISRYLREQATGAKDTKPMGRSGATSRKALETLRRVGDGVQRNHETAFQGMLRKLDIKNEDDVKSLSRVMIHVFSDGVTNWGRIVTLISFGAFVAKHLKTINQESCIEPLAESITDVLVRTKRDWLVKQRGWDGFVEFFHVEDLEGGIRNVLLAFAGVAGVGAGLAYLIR

Target: T1, FLAG-tagged TAp73α (human) (UniProt O15350)
T1 sequence: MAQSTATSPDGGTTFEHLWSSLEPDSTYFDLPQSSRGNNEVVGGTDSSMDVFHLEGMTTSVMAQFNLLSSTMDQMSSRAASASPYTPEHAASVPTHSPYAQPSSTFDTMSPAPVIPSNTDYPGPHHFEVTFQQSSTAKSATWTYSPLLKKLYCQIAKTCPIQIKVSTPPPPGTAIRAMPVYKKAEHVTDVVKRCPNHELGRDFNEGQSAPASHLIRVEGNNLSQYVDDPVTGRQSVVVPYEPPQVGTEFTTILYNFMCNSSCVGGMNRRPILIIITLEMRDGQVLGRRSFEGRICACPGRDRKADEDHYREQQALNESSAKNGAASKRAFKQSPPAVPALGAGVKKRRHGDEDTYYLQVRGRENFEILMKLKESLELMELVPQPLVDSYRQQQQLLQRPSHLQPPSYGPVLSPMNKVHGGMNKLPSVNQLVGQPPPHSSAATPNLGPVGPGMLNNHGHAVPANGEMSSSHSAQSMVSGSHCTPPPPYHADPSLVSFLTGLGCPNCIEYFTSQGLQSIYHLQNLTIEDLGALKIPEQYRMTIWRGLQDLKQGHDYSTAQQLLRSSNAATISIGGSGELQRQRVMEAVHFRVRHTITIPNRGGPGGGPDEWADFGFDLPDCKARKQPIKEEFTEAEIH
Assay: co-IP; HEK293T co-transfected with MCL1 and FLAG-TAp73α or FLAG control, 50 nM bortezomib for 24 h; FLAG precipitated with anti-FLAG magnetic beads; western blot

## MCL1 (full length human, overexpressed in HEK293T) (from UniProt Q07820 1-350)
  binding: binds weakly
